Literature values, collected in patent US20220331448A1, “COMPOSITIONS AND METHODS FOR TREATING SUCCINIC SEMIALDEHYDE DEHYDROGENASE DEFICIENCY (SSADHD)” (Washington State University, priority 2018, published 2022).
At least one structure is not confirmed: it was looked up by name or label, or the drawing left a doubt.

Test system: aldh5a1−/− mice
Details: cited from earlier work

In the case of CCn1c(=O)c(-c2cc[nH]n2)cc2c(C)nc(N)nc21 [XL765], the “rescue from premature lethality / lifespan extension” value is listed as “striking”.
